According to the supplement of paper PMC10849652:
The other results are listed elsewhere or left out.

Amino acid sequences for entries named in this document (tags omitted). A change or cut given only in a name is not applied to a line headed by its entry.
UniProt O14562: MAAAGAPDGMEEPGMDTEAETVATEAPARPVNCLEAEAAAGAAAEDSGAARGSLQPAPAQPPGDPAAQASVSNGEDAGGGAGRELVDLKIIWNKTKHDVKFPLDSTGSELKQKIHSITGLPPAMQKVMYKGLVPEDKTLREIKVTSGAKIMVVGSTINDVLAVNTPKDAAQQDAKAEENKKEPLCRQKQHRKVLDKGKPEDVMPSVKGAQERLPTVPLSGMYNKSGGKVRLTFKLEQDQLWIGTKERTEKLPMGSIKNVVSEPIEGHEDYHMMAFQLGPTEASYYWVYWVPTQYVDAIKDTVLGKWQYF
UniProt P07919: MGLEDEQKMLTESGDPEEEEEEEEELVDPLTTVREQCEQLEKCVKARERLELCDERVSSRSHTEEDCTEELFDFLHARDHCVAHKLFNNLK
UniProt O60701: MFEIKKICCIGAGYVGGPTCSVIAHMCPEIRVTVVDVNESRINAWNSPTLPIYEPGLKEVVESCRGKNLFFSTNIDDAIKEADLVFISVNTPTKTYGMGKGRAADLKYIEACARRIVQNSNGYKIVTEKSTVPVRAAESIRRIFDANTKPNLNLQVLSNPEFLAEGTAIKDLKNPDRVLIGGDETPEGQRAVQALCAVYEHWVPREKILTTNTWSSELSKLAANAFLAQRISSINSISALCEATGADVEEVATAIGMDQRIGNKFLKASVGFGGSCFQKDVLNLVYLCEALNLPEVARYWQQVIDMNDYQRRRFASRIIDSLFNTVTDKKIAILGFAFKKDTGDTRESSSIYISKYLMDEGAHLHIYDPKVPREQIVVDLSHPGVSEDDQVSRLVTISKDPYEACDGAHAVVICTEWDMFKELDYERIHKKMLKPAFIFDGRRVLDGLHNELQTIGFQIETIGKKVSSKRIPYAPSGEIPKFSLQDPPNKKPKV
UniProt Q9UDW1: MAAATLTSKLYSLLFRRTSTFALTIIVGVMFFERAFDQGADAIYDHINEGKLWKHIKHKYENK
UniProt Q96K76: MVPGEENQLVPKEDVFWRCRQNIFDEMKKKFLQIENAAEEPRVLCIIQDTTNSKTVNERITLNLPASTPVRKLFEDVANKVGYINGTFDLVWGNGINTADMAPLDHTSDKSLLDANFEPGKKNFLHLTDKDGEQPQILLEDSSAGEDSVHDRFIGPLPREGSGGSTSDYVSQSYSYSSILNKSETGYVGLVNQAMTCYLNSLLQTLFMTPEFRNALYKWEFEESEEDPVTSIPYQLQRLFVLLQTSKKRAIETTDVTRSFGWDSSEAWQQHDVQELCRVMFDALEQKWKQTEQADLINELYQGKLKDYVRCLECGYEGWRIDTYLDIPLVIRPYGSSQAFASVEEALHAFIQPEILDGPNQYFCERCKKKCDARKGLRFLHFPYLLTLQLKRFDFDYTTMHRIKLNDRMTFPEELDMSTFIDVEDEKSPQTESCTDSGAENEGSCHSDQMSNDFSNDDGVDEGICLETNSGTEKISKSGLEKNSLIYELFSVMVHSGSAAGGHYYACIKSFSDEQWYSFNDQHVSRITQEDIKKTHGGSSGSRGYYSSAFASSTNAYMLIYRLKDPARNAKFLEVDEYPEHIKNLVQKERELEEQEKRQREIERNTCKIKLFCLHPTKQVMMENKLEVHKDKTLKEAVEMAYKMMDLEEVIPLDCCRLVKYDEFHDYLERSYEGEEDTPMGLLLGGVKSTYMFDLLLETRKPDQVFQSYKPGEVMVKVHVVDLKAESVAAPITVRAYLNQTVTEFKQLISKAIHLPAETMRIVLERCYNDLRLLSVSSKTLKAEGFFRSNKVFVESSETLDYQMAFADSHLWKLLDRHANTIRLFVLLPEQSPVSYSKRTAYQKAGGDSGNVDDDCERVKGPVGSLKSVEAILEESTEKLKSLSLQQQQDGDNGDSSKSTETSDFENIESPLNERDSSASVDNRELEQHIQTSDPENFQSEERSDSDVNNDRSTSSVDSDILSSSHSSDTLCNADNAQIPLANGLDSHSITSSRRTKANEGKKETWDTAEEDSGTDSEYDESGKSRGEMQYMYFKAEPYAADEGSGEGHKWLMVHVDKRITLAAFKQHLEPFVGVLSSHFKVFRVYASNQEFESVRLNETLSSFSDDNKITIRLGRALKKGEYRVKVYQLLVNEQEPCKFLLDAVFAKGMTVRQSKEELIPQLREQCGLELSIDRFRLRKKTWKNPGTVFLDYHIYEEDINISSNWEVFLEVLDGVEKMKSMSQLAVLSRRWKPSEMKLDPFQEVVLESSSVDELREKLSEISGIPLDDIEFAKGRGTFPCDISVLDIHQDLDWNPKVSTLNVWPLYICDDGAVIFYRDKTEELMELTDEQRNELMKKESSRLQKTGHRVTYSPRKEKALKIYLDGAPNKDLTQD
UniProt P40818: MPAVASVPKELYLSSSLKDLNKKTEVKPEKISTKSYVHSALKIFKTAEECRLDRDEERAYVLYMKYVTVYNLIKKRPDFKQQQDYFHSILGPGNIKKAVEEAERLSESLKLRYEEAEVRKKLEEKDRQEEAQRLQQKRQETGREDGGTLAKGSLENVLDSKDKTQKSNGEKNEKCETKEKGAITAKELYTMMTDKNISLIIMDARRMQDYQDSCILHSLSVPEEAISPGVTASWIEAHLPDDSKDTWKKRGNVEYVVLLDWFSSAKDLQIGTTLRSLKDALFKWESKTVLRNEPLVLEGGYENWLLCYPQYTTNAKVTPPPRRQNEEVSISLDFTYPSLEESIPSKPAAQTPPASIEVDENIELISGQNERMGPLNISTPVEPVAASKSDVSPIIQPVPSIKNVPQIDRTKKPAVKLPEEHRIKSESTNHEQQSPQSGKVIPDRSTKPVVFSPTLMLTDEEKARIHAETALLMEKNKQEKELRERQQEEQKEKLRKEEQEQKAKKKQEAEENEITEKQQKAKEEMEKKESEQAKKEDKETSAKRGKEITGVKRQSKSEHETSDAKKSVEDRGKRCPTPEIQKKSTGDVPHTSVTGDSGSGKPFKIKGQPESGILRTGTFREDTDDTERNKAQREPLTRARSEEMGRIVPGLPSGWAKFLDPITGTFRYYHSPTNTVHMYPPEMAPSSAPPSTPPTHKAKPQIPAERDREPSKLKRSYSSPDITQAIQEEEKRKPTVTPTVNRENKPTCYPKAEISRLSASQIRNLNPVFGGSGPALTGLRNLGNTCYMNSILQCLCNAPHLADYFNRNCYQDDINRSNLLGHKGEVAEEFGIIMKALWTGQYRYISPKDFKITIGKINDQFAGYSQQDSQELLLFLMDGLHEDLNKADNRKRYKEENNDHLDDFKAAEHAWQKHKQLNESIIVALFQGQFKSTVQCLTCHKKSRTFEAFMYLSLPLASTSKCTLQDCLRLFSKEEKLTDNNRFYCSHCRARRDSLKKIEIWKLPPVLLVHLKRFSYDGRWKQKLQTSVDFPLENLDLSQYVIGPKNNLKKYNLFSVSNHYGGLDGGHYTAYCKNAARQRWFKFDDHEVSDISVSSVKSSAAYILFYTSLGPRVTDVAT
UniProt P31930: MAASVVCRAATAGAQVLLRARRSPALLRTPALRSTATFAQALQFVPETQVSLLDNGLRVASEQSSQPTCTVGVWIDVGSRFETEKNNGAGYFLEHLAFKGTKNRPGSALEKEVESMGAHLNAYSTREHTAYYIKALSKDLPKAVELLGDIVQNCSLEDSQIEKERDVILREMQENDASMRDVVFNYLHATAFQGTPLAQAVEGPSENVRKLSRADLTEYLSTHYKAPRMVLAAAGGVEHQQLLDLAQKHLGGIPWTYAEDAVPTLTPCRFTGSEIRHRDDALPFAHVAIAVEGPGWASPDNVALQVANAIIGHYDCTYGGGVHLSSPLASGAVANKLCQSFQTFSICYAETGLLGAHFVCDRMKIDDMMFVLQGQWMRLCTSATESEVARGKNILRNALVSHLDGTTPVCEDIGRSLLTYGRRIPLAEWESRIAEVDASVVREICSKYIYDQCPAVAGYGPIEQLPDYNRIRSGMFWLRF
UniProt Q93008, whole entry, looked up: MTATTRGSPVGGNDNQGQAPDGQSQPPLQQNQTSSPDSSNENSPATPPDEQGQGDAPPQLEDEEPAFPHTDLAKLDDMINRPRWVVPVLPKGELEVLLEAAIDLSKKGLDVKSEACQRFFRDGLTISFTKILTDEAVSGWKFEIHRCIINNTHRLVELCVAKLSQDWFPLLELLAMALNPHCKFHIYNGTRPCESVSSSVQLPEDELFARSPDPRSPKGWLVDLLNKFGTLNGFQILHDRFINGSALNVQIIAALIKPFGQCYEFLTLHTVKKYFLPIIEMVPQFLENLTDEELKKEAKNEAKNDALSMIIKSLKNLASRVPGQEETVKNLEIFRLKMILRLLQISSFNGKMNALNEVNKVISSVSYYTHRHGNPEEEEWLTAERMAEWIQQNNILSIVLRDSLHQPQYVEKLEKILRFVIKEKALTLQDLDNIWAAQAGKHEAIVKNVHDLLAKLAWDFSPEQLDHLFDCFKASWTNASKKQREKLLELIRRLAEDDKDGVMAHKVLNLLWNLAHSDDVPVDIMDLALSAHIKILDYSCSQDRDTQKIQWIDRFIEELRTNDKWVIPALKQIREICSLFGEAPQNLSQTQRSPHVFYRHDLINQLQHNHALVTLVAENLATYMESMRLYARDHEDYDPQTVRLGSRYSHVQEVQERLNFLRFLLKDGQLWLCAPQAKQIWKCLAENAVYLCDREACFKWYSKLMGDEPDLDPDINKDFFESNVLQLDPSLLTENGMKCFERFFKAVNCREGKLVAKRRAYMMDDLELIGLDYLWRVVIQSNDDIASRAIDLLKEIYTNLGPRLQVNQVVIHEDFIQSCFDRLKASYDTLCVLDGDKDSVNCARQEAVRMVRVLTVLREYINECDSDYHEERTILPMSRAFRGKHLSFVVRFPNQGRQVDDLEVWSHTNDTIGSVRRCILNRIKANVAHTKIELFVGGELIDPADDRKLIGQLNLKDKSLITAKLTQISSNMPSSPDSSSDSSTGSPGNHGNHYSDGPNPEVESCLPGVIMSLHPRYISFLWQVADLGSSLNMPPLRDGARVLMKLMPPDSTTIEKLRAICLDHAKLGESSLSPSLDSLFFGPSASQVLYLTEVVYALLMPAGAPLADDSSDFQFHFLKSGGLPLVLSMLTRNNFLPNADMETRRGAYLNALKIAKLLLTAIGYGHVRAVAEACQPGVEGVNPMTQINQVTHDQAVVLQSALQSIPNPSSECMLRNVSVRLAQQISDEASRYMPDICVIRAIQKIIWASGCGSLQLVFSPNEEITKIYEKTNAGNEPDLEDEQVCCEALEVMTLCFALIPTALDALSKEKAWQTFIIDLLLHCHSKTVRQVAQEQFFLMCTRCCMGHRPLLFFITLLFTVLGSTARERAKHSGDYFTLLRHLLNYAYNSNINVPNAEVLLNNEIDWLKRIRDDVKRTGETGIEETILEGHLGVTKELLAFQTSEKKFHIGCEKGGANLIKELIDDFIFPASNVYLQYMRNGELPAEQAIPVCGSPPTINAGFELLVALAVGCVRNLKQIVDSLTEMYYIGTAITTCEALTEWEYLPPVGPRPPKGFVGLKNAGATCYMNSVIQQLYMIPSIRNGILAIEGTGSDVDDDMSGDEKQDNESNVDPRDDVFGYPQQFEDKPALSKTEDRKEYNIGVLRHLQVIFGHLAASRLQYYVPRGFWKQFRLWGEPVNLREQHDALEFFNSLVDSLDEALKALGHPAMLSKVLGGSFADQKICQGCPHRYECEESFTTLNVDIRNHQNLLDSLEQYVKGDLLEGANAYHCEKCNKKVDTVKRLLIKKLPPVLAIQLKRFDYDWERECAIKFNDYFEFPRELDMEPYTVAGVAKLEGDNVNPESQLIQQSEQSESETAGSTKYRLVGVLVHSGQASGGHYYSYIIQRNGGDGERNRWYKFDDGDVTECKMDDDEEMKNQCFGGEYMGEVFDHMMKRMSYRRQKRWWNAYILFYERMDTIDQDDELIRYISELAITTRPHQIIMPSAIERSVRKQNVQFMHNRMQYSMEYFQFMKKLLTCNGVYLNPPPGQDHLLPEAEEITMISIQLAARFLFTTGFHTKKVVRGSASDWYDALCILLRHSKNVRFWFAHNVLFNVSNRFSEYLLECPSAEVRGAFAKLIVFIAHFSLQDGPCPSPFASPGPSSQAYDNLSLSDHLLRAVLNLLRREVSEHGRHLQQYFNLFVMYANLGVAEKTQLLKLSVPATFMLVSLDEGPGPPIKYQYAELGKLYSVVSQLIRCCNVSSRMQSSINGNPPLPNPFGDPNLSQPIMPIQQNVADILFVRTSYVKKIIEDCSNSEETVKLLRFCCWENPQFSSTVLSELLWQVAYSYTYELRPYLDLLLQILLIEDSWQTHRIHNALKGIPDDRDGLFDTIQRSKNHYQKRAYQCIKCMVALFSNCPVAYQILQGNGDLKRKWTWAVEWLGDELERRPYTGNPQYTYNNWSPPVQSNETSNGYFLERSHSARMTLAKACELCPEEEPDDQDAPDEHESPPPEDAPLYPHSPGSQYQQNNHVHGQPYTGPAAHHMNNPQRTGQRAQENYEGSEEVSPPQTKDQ

What was measured:
Assay in all cases: log2 fold change, soluble protein after heating vs DMSO (PISA); higher = thermal stabilisation; K562 cells, 10 uM, 30 min; active = over 0.2 and 3.5 SD of the protein, either way, in both replicates (recomputed)
bafetinib = compound: Cc1ccc(NC(=O)c2ccc(CN3CC[C@H](N(C)C)C3)c(C(F)(F)F)c2)cc1Nc1nccc(-c2cncnc2)n1 [bafetinib]
How it was run: (§1)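 Values are thermal stability changes relative to control samples and are taken from duplicates. They are stated as log2 fold changes. Before quantification by TMTpro 16plex LC-MS/MS with equalised channel sums, K562 cells at 2×10^6 cells/mL were treated with 10 μM compound for 30 min, heated in aliquots for 3 min across 48°C-58°C, pooled, extracted in PBS with 0.5% NP-40 at 4°C, and centrifuged at 21,000xg for 90 min to give the soluble supernatant.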

[1] = compound: Cc1cccc(CC(=O)N2CCc3c2ccc(-c2cn(C)c4ncnc(N)c24)c3F)n1
How it was run: as §1

nilotinib = compound: Cc1cn(-c2cc(NC(=O)c3ccc(C)c(Nc4nccc(-c5cccnc5)n4)c3)cc(C(F)(F)F)c2)cn1 [nilotinib]
How it was run: as §1

[2] = compound: Cc1nc(Nc2n[nH]c3c2CN(C(=O)N[C@H](CN(C)C)c2ccccc2)C3(C)C)c2sccc2n1
How it was run: as §1

dasatinib = compound: Cc1nc(Nc2ncc(C(=O)Nc3c(C)cccc3Cl)s2)cc(N2CCN(CCO)CC2)n1 [dasatinib]
How it was run: as §1

[3] = compound: Cc1ncc(-c2ccnc(Nc3ccc(S(C)(=O)=O)cc3)n2)n1C(C)C
How it was run: as §1

[4] = compound: Cn1cc(-c2ccc3c(c2)CCN3C(=O)Cc2cccc(C(F)(F)F)c2)c2c(N)ncnc21
How it was run: as §1

[5] = compound: Cn1cc(-c2ccc3nnc(C(F)(F)c4ccc5ncccc5c4)n3n2)cn1
How it was run: as §1

tipifarnib = compound: Cn1cncc1[C@@](N)(c1ccc(Cl)cc1)c1ccc2c(c1)c(-c1cccc(Cl)c1)cc(=O)n2C [tipifarnib]
How it was run: as §1

mubritinib = compound: FC(F)(F)c1ccc(/C=C/c2nc(COc3ccc(CCCCn4ccnn4)cc3)co2)cc1 [mubritinib]
How it was run: as §1

[6] = compound: NC(=O)Nc1cc(-c2cccc(F)c2)sc1C(=O)N[C@H]1CCCNC1
How it was run: as §1

[7] = compound: NC(=O)c1cnc(N[C@@H]2CCCC[C@@H]2N)nc1Nc1cccc(-n2nccn2)c1
How it was run: as §1

[8] = compound: NC1(c2ccc(-c3nc4ccn5c(=O)[nH]nc5c4cc3-c3ccccc3)cc2)CCC1
How it was run: as §1

[9] = compound: NCC(=O)Nc1ccc(-n2nc(C(F)(F)F)cc2-c2ccc3c(ccc4ccccc43)c2)cc1
How it was run: as §1

entinostat = compound: Nc1ccccc1NC(=O)c1ccc(CNC(=O)OCc2cccnc2)cc1 [entinostat]
How it was run: as §1

vorinostat = compound: O=C(CCCCCCC(=O)Nc1ccccc1)NO [vorinostat]
How it was run: as §1

citarinostat = compound: O=C(CCCCCCNC(=O)c1cnc(N(c2ccccc2)c2ccccc2Cl)nc1)NO [citarinostat]
How it was run: as §1

silmitasertib = compound: O=C(O)c1ccc2c(c1)nc(Nc1cccc(Cl)c1)c1ccncc12 [silmitasertib]
How it was run: as §1

[10] = compound: O=C1NC(=O)C(c2cnc3ccccn23)=C1c1cn2c3c(cc(F)cc13)CN(C(=O)N1CCCCC1)CC2
How it was run: as §1

[11] = compound: c1cc(OCCN2CCCCC2)cc(-c2n[nH]c3ccc(-c4nnc[nH]4)cc23)c1
How it was run: as §1

Measured: log2 fold change

UBFD1 (UniProt O14562)
inactive: bafetinib -0.048 | [1] 0.031 | nilotinib -0.009 | [2] 0.004 | dasatinib 0 | [3] -0.017 | [4] 0.016 | [5] 0.018 | tipifarnib -0.024 | mubritinib 0.024 | [6] -0.02 | [7] -0.061 | [8] -0.108 | [9] -0.029 | entinostat 0.021 | vorinostat 0.016 | citarinostat 0.048 | silmitasertib 0.036 | [10] -0.055 | [11] 0.002

UQCC2 (UniProt Q9BRT2)
inactive: bafetinib -0.123 | [1] -0.098 | nilotinib -0.03 | [2] 0.043 | dasatinib -0.158 | [3] -0.004 | [4] -0.034 | [5] 0.041 | tipifarnib 0.017 | mubritinib 0 | [6] -0.014 | [7] -0.003 | [8] -0.048 | [9] 0.172 | entinostat -0.035 | vorinostat 0.019 | citarinostat 0.049 | silmitasertib -0.02 | [10] -0.072 | [11] -0.024

UGT8 (UniProt Q16880)
inactive: bafetinib 0.031 | [1] 0.158 | nilotinib 0.252 | [2] 0.134 | dasatinib 0.027 | [3] -0.105 | [4] 0.067 | [5] 0.082 | tipifarnib 0.373 | mubritinib 0.088 | [6] -0.049 | [7] 0.104 | [8] -0.011 | [9] -0.132 | entinostat -0.107 | vorinostat 0.047 | citarinostat -0.035 | silmitasertib -0.055 | [10] 0.308 | [11] -0.141

UBE3C (UniProt Q15386)
inactive: bafetinib -0.027 | [1] 0.031 | nilotinib -0.047 | [2] -0.096 | dasatinib -0.068 | [3] 0.017 | [4] -0.025 | [5] -0.097 | tipifarnib -0.054 | mubritinib -0.005 | [6] 0.011 | [7] -0.061 | [8] -0.086 | [9] -0.096 | entinostat 0.025 | vorinostat 0.023 | citarinostat 0.005 | silmitasertib 0.027 | [10] -0.125 | [11] -0.065

UQCRH (UniProt P07919)
inactive: bafetinib -0.056 | [1] 0.014 | nilotinib -0.038 | [2] 0.055 | dasatinib 0.02 | [3] -0.07 | [4] 0.035 | [5] 0.041 | tipifarnib -0.031 | mubritinib -0.01 | [6] -0.033 | [7] -0.022 | [8] -0.013 | [9] -0.001 | entinostat -0.01 | vorinostat -0.009 | citarinostat 0.016 | silmitasertib 0.049 | [10] -0.032 | [11] 0.093

UGDH (UniProt O60701)
inactive: bafetinib 0.018 | [1] 0.062 | nilotinib -0.045 | dasatinib -0.043 | [3] -0.24 | [4] 0.151 | [5] 0.09 | tipifarnib -0.034 | mubritinib 0.202 | [6] -0.062 | [7] -0.124 | [8] -0.033 | [9] -0.095 | entinostat 0.064 | vorinostat -0.027 | citarinostat 0.145 | silmitasertib -0.102 | [11] 0
active: [2] -0.377 | [10] -0.31

UQCR10 (UniProt Q9UDW1)
inactive: bafetinib -0.047 | [1] -0.011 | nilotinib -0.003 | [2] 0.02 | dasatinib -0.009 | [3] -0.059 | [4] 0.072 | [5] 0.084 | tipifarnib 0.007 | mubritinib -0.024 | [6] -0.053 | [7] -0.043 | [8] 0.076 | [9] 0.02 | entinostat -0.003 | vorinostat 0.187 | citarinostat 0.045 | silmitasertib -0.003 | [10] -0.067 | [11] -0.026

UBXN7 (UniProt O94888)
inactive: bafetinib -0.035 | [1] 0.015 | nilotinib 0.039 | [2] -0.028 | dasatinib -0.049 | [3] -0.007 | [4] 0.023 | [5] -0.046 | tipifarnib -0.002 | mubritinib 0.048 | [6] 0.019 | [7] -0.048 | [8] -0.096 | [9] 0 | entinostat 0.047 | vorinostat 0.046 | citarinostat 0.038 | silmitasertib 0.023 | [10] -0.042 | [11] 0.131

USP47 (UniProt Q96K76)
inactive: bafetinib 0.06 | [1] -0.001 | nilotinib -0.065 | [2] -0.12 | dasatinib -0.011 | [3] 0.014 | [4] -0.094 | [5] -0.067 | tipifarnib -0.027 | mubritinib -0.079 | [6] -0.05 | [7] -0.126 | [8] -0.138 | [9] -0.09 | entinostat 0.019 | vorinostat 0.052 | citarinostat 0.029 | silmitasertib 0.117 | [10] 0.067 | [11] -0.096

UNC45A (UniProt Q9H3U1)
inactive: bafetinib 0.101 | [1] 0.1 | nilotinib -0.13 | [2] -0.126 | dasatinib -0.111 | [3] 0.057 | [4] -0.046 | [5] -0.043 | tipifarnib -0.117 | mubritinib -0.047 | [6] -0.019 | [7] -0.041 | [8] -0.086 | [9] -0.03 | entinostat 0.051 | vorinostat 0.115 | citarinostat 0.027 | silmitasertib 0.068 | [10] 0.161 | [11] -0.047

VAMP4 (UniProt O75379)
inactive: bafetinib -0.086 | [1] -0.025 | nilotinib 0.011 | [2] -0.008 | dasatinib 0.05 | [3] -0.049 | [4] 0.013 | [5] 0.062 | tipifarnib 0.06 | mubritinib 0.063 | [6] -0.043 | [7] -0.006 | [8] -0.12 | [9] 0.085 | entinostat -0.052 | vorinostat 0.007 | citarinostat 0.025 | silmitasertib 0.058 | [10] -0.08 | [11] -0.021

USP8 (UniProt P40818)
inactive: bafetinib 0.016 | [1] 0.063 | nilotinib -0.004 | [2] -0.029 | dasatinib -0.24 | [3] 0.076 | [4] 0.052 | [5] -0.04 | tipifarnib -0.089 | mubritinib 0.018 | [6] -0.074 | [7] -0.077 | [8] -0.085 | [9] -0.051 | entinostat 0.056 | vorinostat 0.038 | citarinostat 0.067 | silmitasertib 0.114 | [10] 0.039 | [11] -0.034

UQCRC1 (UniProt P31930)
inactive: bafetinib 0.017 | [1] -0.079 | nilotinib 0.024 | [2] -0.006 | dasatinib 0.014 | [3] -0.025 | [4] 0.033 | [5] 0.012 | tipifarnib 0.028 | mubritinib 0.033 | [6] 0.008 | [7] 0.03 | [8] 0.033 | [9] 0.018 | entinostat 0.005 | vorinostat -0.041 | citarinostat -0.008 | silmitasertib -0.01 | [10] -0.071 | [11] -0.008

UQCRFS1 (UniProt P47985)
inactive: bafetinib -0.001 | [1] -0.129 | nilotinib 0.032 | [2] -0.003 | dasatinib 0.024 | [3] -0.032 | [4] 0.059 | [5] 0.094 | tipifarnib 0.038 | mubritinib -0.021 | [6] 0.088 | [7] 0.092 | [8] 0.035 | [9] 0.118 | entinostat 0.025 | vorinostat -0.112 | citarinostat -0.01 | silmitasertib -0.051 | [10] -0.017 | [11] 0.087

USP9X (UniProt Q93008)
inactive: bafetinib -0.016 | [1] 0.071 | nilotinib -0.099 | [2] -0.056 | dasatinib -0.122 | [3] -0.004 | [4] -0.052 | [5] -0.021 | tipifarnib -0.126 | mubritinib 0.052 | [6] 0 | [7] -0.062 | [8] -0.174 | [9] -0.041 | entinostat 0.037 | vorinostat 0.06 | citarinostat 0.032 | silmitasertib 0.017 | [10] -0.015 | [11] -0.056

UGP2 (UniProt Q16851)
inactive: bafetinib -0.012 | [1] -0.014 | nilotinib 0.037 | [2] -0.015 | dasatinib 0.023 | [3] -0.008 | [4] 0.025 | [5] 0.043 | tipifarnib -0.021 | mubritinib 0.029 | [6] -0.016 | [7] -0.013 | [8] -0.017 | [9] -0.001 | entinostat -0.015 | vorinostat 0.048 | citarinostat 0.024 | silmitasertib -0.032 | [10] -0.058 | [11] -0.016
